Holding throughout (test): fluorescence polarization
What all share (conditions): 20 mM Tris pH 7.5, 150 mM NaCl, 1 mM DTT, 0.05% Tween 20, 25 C, 0.1 nM labelled RNA, recombinant protein, label: 5' Atto532

Data set [1] deals with CPSF160FL + WDR33 M1-K410 + CPSF30 ZF1.
Data set [2] concerns CPSF160FL + WDR33 M1-K410.
In data set [3] the test system is CPSF160FL + WDR33 M1-K410 + CPSF30 ZF1-2.

For part of these data: Construct, isoform or probe ends are uncertain for at least one entry.

By Kd is commonly meant a measure of binding affinity in units of concentration. Regarding “CACACAAGAAAGGCAA [L3 PAS RNA mutant (AAGAAA)]”, the Kd in data set [1] (n.m. (Kd >>1 uM)) was > 1000 nM; in data set [2] (no CPSF30, n.m. (Kd >>1 uM)), > 1000 nM; in data set [3] (n.m. (Kd >>1 uM)), > 1000 nM.

“CACACAAUAAAGGCAA [L3 PAS RNA wild-type (AAUAAA)]”: the Kd in data set [1], in data set [2] (no CPSF30) and in data set [3] was > 200 nM throughout.
